# Library screen at single concentrations

Amino acid sequences for entries named in this document (tags omitted).
UniProt I6X8D2, whole entry: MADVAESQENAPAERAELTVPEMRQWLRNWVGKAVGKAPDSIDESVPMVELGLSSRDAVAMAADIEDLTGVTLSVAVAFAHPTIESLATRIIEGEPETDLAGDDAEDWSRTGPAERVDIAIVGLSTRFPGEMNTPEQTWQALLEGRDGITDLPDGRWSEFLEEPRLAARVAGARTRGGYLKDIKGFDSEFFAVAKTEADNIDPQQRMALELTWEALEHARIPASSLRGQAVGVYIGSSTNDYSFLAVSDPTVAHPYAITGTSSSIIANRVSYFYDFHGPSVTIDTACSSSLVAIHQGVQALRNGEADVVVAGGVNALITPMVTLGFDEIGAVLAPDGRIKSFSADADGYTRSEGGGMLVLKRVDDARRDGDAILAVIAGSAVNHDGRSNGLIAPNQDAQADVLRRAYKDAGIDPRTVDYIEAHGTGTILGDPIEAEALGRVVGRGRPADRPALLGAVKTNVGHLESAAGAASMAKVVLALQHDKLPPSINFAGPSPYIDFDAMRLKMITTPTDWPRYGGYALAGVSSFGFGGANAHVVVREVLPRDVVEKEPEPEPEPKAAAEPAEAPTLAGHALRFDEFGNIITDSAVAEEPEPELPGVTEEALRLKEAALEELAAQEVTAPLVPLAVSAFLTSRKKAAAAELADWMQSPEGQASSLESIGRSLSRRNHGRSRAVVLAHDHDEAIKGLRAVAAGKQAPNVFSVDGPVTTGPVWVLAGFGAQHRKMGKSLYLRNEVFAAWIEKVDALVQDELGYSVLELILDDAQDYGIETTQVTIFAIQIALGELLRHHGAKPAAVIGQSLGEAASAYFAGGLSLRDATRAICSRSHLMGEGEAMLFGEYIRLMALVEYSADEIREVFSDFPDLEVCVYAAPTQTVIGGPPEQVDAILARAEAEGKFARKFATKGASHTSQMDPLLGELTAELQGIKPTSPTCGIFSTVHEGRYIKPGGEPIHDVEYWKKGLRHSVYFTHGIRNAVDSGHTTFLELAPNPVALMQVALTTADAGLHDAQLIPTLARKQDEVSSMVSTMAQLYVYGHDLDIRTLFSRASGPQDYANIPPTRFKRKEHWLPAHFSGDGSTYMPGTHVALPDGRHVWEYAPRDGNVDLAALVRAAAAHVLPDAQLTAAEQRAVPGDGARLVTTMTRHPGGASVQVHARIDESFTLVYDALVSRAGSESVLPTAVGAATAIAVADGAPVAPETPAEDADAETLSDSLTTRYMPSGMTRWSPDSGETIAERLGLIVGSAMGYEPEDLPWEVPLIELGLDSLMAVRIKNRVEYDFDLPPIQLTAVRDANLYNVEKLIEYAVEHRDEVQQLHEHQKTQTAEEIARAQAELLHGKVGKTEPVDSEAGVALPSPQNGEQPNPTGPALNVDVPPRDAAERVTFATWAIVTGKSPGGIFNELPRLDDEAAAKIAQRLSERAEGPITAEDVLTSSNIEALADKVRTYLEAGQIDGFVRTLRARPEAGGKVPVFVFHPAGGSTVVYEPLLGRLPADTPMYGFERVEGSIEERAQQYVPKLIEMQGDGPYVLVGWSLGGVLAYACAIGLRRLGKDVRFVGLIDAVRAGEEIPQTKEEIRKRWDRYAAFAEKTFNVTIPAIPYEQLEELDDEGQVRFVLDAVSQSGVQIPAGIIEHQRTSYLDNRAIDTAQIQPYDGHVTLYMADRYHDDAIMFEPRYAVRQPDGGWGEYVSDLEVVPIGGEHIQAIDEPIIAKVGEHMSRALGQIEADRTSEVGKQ
UniProt P9WPC5, whole entry: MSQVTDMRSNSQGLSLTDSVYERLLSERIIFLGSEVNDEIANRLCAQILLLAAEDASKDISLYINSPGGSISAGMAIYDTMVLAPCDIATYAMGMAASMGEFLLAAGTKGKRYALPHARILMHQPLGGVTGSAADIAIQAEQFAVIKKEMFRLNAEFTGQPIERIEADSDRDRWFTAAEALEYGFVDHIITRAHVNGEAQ
UniProt P9WPC3, whole entry partner: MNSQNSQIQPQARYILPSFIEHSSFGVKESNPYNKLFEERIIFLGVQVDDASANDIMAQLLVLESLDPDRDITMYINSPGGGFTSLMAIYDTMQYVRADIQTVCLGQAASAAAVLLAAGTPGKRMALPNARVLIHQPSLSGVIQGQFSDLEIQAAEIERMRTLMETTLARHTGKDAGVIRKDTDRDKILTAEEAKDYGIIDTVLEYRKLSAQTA

Source: ChEMBL document CHEMBL3988442, “University of Dundee, Small-Polar-MMV Screening Library” (2021).

Leishmania in macrophages: 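Cell assay of Leishmania donovani living inside macrophages; the read-out is not stated. Tested at 30 µM. Higher reads as stronger inhibition (inferred: compounds with an IC50 in retests scored well above the rest). About 69,000 compounds were tested under these conditions; 1.5% (about 1,000) showed 50% or more at least once.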
Pks13 thioesterase: 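Polyketide synthase Pks13, Mycobacterium tuberculosis (UniProt I6X8D2). Enzyme assay of the thioesterase domain of polyketide synthase 13; the read-out is not stated. Concentration: 30 µM. The record gives no direction; the compounds picked for IC50 retests had high values, so higher reads as stronger inhibition. Of about 67,000 compounds tested this way, about 300 (0.46%) reached 50% or more in at least one test.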
ClpP1P2: 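Protease assay of ClpP1P2, read by the AMC dye that it sets free. Target: ClpP1P2, Mycobacterium tuberculosis (UniProt P9WPC5 and UniProt P9WPC3). Compounds at 50 µM. Higher reads as stronger inhibition, judged from the few compounds that gave an IC50. Most other retested compounds had strongly negative values. Of about 69,000 compounds tested this way, about 10 (0.015%) reached 50% or more in at least one test.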
T. brucei: 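Whole-parasite assay of Trypanosoma brucei over 72 hours; the read-out is not stated. Concentration: 30 µM. Direction is inferred from retests: higher values go with stronger inhibition. Values scatter widely below zero; nearly all retest evidence comes from the higher of the two concentrations used. Of about 64,000 compounds tested this way, about 940 (1.5%) reached 50% or more in at least one test.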

The filed quantity is “Percent Effect” (%). The controls that fix the scale are not given in the record; negative values are as filed. This is an unselected part of the compounds tested.

- Cc1nc(CN2CCC(CNC(=O)C3(C)CCCC3)CC2)oc1C | Leishmania in macrophages: 9.394%; Pks13 thioesterase: -4.316%; ClpP1P2: -9.967%; T. brucei: -36.33%
- CCNc1cc2c(nn1)CCN(C(=O)c1ccc(-n3cnnc3)cc1)C2 | Leishmania in macrophages: 26.41%; Pks13 thioesterase: -6.668%; ClpP1P2: -15.83%; T. brucei: 8.728%
- O=C(O)c1cc(-c2ccncc2F)cc(S(=O)(=O)N2CCCCCC2)c1 | Leishmania in macrophages: -33.9%; Pks13 thioesterase: -33.28%; ClpP1P2: -8.66%; T. brucei: -0.4181%
- CS(=O)(=O)Cc1ccc(Cl)cc1NCc1ccccc1F | Leishmania in macrophages: 17.75%; Pks13 thioesterase: 15.18%; ClpP1P2: -0.6453%; T. brucei: 9.062%
- O=C1N(c2cccnc2)CCC12CCCN(Cc1cccnc1)C2 (stereo not shown) | Pks13 thioesterase: -19.09%; ClpP1P2: -5.506%
- [H][C@@]12C[C@@H](C)O[C@]1([H])CN(C(=O)c1ccncn1)C2 | Leishmania in macrophages: -2.346%; T. brucei: -39.17%
- O=C(NCCCn1nc2ccccn2c1=O)NC(C1CC1)C1CC1 | Leishmania in macrophages: 7.023%; Pks13 thioesterase: 4.189%; ClpP1P2: -4.528%; T. brucei: -21.05%
- Cn1c(=O)oc2cc(S(=O)(=O)N3CCCCC3)c(Cl)cc21 | Leishmania in macrophages: -17.54%; Pks13 thioesterase: -6.228%; ClpP1P2: 20.18%; T. brucei: -87.29%
- O=C(O)C(F)(F)F.[H][C@@]12CN(CC3CC3)C[C@]1([H])[C@@H](OC)CCN2C(=O)Cc1ccsc1 | Leishmania in macrophages: 1.56%; T. brucei: 28.02%
- Cn1ccc(C(=O)N2CCN(c3cc(C#N)ccn3)CC2)cc1=O | Leishmania in macrophages: 12.47%; Pks13 thioesterase: -3.507%; ClpP1P2: -24.46%; T. brucei: 18.24%
- CCN1C(=O)CCCC12CCCN(C(=O)c1ccncc1F)C2 (stereo not shown) | Pks13 thioesterase: -9.049%; ClpP1P2: 2.234%
- CN1N=C(C(=O)N2CCN(c3ncccn3)CC2)CCC1=O | Leishmania in macrophages: 0.7492%; Pks13 thioesterase: -13.63%; ClpP1P2: 9.15%; T. brucei: 4.006%
- CC(C)COC(=O)N1CCC2(CCNC2)C1 (stereo not shown) | Pks13 thioesterase: -29.39%; ClpP1P2: -3.699%
- O=C(Nc1ccccc1Oc1cccc(F)c1)NC1CCS(=O)(=O)C1 (stereo not shown) | Leishmania in macrophages: -21.67%; Pks13 thioesterase: -6.869%; ClpP1P2: -1.159%; T. brucei: -20.13%
- Cc1[nH]nc2ncc(C(=O)N3CCN(CCC(C)C)CC3)cc12 | Leishmania in macrophages: -16.61%; Pks13 thioesterase: -12.45%; ClpP1P2: 8.179%; T. brucei: -11.63%
- CNC(=O)COC1COC2(CCN(c3cnccn3)CC2)C1 (stereo not shown) | Pks13 thioesterase: -25.71%; ClpP1P2: 2.296%
- CC(C(=O)N1CCN(C)CC1)n1cc(Br)cn1 (stereo not shown) | Leishmania in macrophages: -16.33%; Pks13 thioesterase: 4.557%; ClpP1P2: -3.767%; T. brucei: -25.77%
- CN(C)C1COC2(CCN(Cc3nccs3)CC2)C1 (stereo not shown) | Pks13 thioesterase: -24.11%; ClpP1P2: -16.61%
- CCC(OC)C(=O)NCC1CCN(c2cnn(C)c(=O)c2)CC1 (stereo not shown) | Leishmania in macrophages: 4.202%; Pks13 thioesterase: 10.07%; ClpP1P2: -17.1%; T. brucei: -49.68%
- Cc1cc(C)c(CNC(=O)NCc2nnc3n2CCC3)c(=O)[nH]1 | Leishmania in macrophages: -0.664%; Pks13 thioesterase: -8.558%; ClpP1P2: 8.444%; T. brucei: -141.8%

For reference, 2 entries once more:

With CN(C)C1COC2(CCN(Cc3nccs3)CC2)C1 (stereo not shown) the screen gave Pks13 thioesterase: -24.11%; ClpP1P2: -16.61%.
With Cn1c(=O)oc2cc(S(=O)(=O)N3CCCCC3)c(Cl)cc21 the screen gave Leishmania in macrophages: -17.54%; Pks13 thioesterase: -6.228%; ClpP1P2: 20.18%; T. brucei: -87.29%.